Usually IC50 stands for the midpoint of a concentration-inhibition curve.

Molecules are shown by their SMILES.

In test [1] the test system is MDA-MB-231. In words: Cytotoxicity against human MDA-MB-231 cells after 72 hrs by MTT assay. The class given is functional, cell-based. The conditions noted are these: MDA-MB-231, 72 h. The essentials:
(§1)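 Lines grown in RPMI with 10% FBS and 2 mM L-glutamine. MTT assay: 4000 cells/well attached 24 h before serially diluted drug, then 72 h exposure at 37 °C, 5% CO2. MTT in IMDM 4 h, lysis in acidified ethanol 15 min, absorbance 570 nm minus 690 nm. IC50 is the concentration halving untreated absorbance. Three independent experiments, each in triplicate.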
On the technique in general: Tetrazolium assays rely on reduction of a dye to a coloured formazan, in cell work by metabolically active cells.

Test [2] concerns MDA-MB-231. In words: Cytotoxicity against human MDA-MB-231 cells selected at 100 ug/ml vinblastine after 72 hrs by MTT assay. The class given is functional, cell-based. Particulars: MDA-MB-231, 72 h. Summed up: as §1

`COc1cccc2c1C(=O)c1c(O)c3c(c(O)c1C2=O)C[C@@](O)(C(=O)CO)C[C@@H]3O[C@H]1C[C@H](N)[C@H](O)[C@H](C)O1` [DOXORUBICIN]: the IC50 in test [1] is 390 nM; in test [2], 3060 nM.

The values are drawn from ChEMBL document CHEMBL1914305, “Synthesis and structure-activity evaluation of isatin-β-thiosemicarbazones with improved selective activity toward multidrug-resistant cells expressing P-glycoprotein” (J Med Chem, 2011).
